Laboratory results: PubChem BioAssay AID652243 (Drosophila RNAi Screening Center, 2013)

Test: 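Knock-downs that decrease or increase androgen receptor reporter signal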 (primary screen)
Cells: Drosophila S2R+ cells
Reagent: long dsRNA against Drosophila genes
Duration: 72 h (48 h, then 24 h hormone)
Challenge: synthetic androgen R1881 at 10 nM for 24 h
Measured: 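Per-well raw luminescence of the androgen-driven firefly reporter and of the Renilla control, two replicates each, without normalisation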
Direction: firefly reporter light: higher = more light from androgen-responsive reporter; Renilla control light: higher = more constitutive control signal (cell number, transfection)
Active means: 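Hit when the log firefly-to-Renilla ratio dropped or increased by a fixed fold versus the mean of GFP or LacZ controls across duplicate plates; lowering cut given as 1.5 and as 3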
Calls: active = hit: reporter lowered or raised; inactive = no hit
In all, the deposit lists about 24,000 reagents; this is a random part of those with a known target gene and a result. In the full data, 246 (1%) are marked active. 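Plates not normalised; calls are printed but the firefly/Renilla ratio behind them is not deposited; fold cut for lowering reported inconsistently.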 Raw values are not corrected between plates. Reagents against one gene are numbered here. Not given: the amount of reagent.

What is on record for Lrpprc2 #1?
firefly reporter light, replicate 1: 76544; firefly reporter light, replicate 2: 60491; Renilla control light, replicate 1: 7.98e5; Renilla control light, replicate 2: 4.67e5; Outcome: inactive

For Lrpprc2 #2, what does the deposit list?
firefly reporter light, replicate 1: 7.13e5; firefly reporter light, replicate 2: 6.77e5; Renilla control light, replicate 1: 1.22e6; Renilla control light, replicate 2: 1.38e6; Outcome: inactive

How did the screen score Sgs3 #1?
firefly reporter light, replicate 1: 3.09e5; firefly reporter light, replicate 2: 3.25e5; Renilla control light, replicate 1: 2.92e6; Renilla control light, replicate 2: 2.88e6; Outcome: inactive

With Sgs3 #2, what was measured?
firefly reporter light, replicate 1: 1.01e6; firefly reporter light, replicate 2: 1.34e6; Renilla control light, replicate 1: 1.99e6; Renilla control light, replicate 2: 2.14e6; Outcome: inactive

With Sgs3 #3, what was measured?
firefly reporter light, replicate 1: 5.96e5; firefly reporter light, replicate 2: 4.52e5; Renilla control light, replicate 1: 1.13e6; Renilla control light, replicate 2: 1.04e6; Outcome: inactive

For CG2021 #1, how do the results read?
firefly reporter light, replicate 1: 1.78e5; firefly reporter light, replicate 2: 1.60e5; Renilla control light, replicate 1: 1.42e6; Renilla control light, replicate 2: 1.73e6; Outcome: inactive

For CG2021 #2, what was measured?
firefly reporter light, replicate 1: 2.45e5; firefly reporter light, replicate 2: 2.60e5; Renilla control light, replicate 1: 5.23e5; Renilla control light, replicate 2: 6.28e5; Outcome: inactive

With Plod #1, what was measured?
firefly reporter light, replicate 1: 1.18e6; firefly reporter light, replicate 2: 8.47e5; Renilla control light, replicate 1: 1.27e6; Renilla control light, replicate 2: 1.13e6; Outcome: inactive

For Plod #2, what was measured?
firefly reporter light, replicate 1: 2.96e5; firefly reporter light, replicate 2: 2.24e5; Renilla control light, replicate 1: 2.70e6; Renilla control light, replicate 2: 1.86e6; Outcome: inactive

Which result is listed for Wdr81 #1?
firefly reporter light, replicate 1: 1.04e6; firefly reporter light, replicate 2: 1.26e6; Renilla control light, replicate 1: 2.02e6; Renilla control light, replicate 2: 2.19e6; Outcome: inactive

What is on record for Wdr81 #2?
firefly reporter light, replicate 1: 2.41e5; firefly reporter light, replicate 2: 2.28e5; Renilla control light, replicate 1: 5.34e5; Renilla control light, replicate 2: 5.71e5; Outcome: inactive

What did the screen give for CG13679 #1?
firefly reporter light, replicate 1: 4.64e5; firefly reporter light, replicate 2: 4.09e5; Renilla control light, replicate 1: 1.92e6; Renilla control light, replicate 2: 2.09e6; Outcome: inactive

For CG13679 #2, what was measured?
firefly reporter light, replicate 1: 1.06e6; firefly reporter light, replicate 2: 1.09e6; Renilla control light, replicate 1: 5.59e5; Renilla control light, replicate 2: 4.63e5; Outcome: inactive

With slp2 #1, how do the results read?
firefly reporter light, replicate 1: 1.43e5; firefly reporter light, replicate 2: 1.71e5; Renilla control light, replicate 1: 7.02e5; Renilla control light, replicate 2: 9.72e5; Outcome: inactive

With slp2 #2, how do the results read?
firefly reporter light, replicate 1: 4.06e5; firefly reporter light, replicate 2: 5.61e5; Renilla control light, replicate 1: 4.60e5; Renilla control light, replicate 2: 4.62e5; Outcome: inactive

2 of these entries, reformatted.
{"gene":"Wdr81","reagent":1,"firefly reporter light, replicate 1":1.04e6,"firefly reporter light, replicate 2":1.26e6,"Renilla control light, replicate 1":2.02e6,"Renilla control light, replicate 2":2.19e6,"Outcome":"inactive"}
{"gene":"Wdr81","reagent":2,"firefly reporter light, replicate 1":2.41e5,"firefly reporter light, replicate 2":2.28e5,"Renilla control light, replicate 1":5.34e5,"Renilla control light, replicate 2":5.71e5,"Outcome":"inactive"}

Next records follow:
For CG12674, how do the results read?
firefly reporter light, replicate 1: 64441; firefly reporter light, replicate 2: 86245; Renilla control light, replicate 1: 8.00e5; Renilla control light, replicate 2: 3.82e5; Outcome: inactive

How did the screen score CG1307?
firefly reporter light, replicate 1: 79251; firefly reporter light, replicate 2: 28542; Renilla control light, replicate 1: 9.39e5; Renilla control light, replicate 2: 3.39e5; Outcome: inactive

With aux #1, what was measured?
firefly reporter light, replicate 1: 60912; firefly reporter light, replicate 2: 63613; Renilla control light, replicate 1: 4.42e5; Renilla control light, replicate 2: 4.40e5; Outcome: inactive

With aux #2, what does the deposit list?
firefly reporter light, replicate 1: 4.71e5; firefly reporter light, replicate 2: 6.02e5; Renilla control light, replicate 1: 1.11e6; Renilla control light, replicate 2: 1.03e6; Outcome: inactive

For aux #3, what was measured?
Outcome: inactive

With Pde1c #1, what was measured?
firefly reporter light, replicate 1: 2.44e5; firefly reporter light, replicate 2: 2.76e5; Renilla control light, replicate 1: 1.94e6; Renilla control light, replicate 2: 1.88e6; Outcome: inactive

With Pde1c #2, what was measured?
firefly reporter light, replicate 1: 1.88e5; firefly reporter light, replicate 2: 2.32e5; Renilla control light, replicate 1: 1.45e6; Renilla control light, replicate 2: 1.78e6; Outcome: inactive

For Pde1c #3, what was measured?
firefly reporter light, replicate 1: 1.40e5; firefly reporter light, replicate 2: 1.49e5; Renilla control light, replicate 1: 1.29e6; Renilla control light, replicate 2: 1.19e6; Outcome: inactive

How did the screen score Pde1c #4?
firefly reporter light, replicate 1: 2.78e5; firefly reporter light, replicate 2: 2.35e5; Renilla control light, replicate 1: 1.78e6; Renilla control light, replicate 2: 2.12e6; Outcome: inactive

What is on record for Pde1c #5?
firefly reporter light, replicate 1: 1.60e5; firefly reporter light, replicate 2: 1.92e5; Renilla control light, replicate 1: 1.23e6; Renilla control light, replicate 2: 1.14e6; Outcome: inactive

For Pde1c #6, how do the results read?
firefly reporter light, replicate 1: 2.26e5; firefly reporter light, replicate 2: 2.75e5; Renilla control light, replicate 1: 1.34e6; Renilla control light, replicate 2: 1.47e6; Outcome: inactive

For Pde1c #7, what was measured?
firefly reporter light, replicate 1: 2.94e5; firefly reporter light, replicate 2: 3.58e5; Renilla control light, replicate 1: 9.18e5; Renilla control light, replicate 2: 6.70e5; Outcome: inactive
